Measured values reported in the supplement of paper PMC10470496.
Counter-ions that a name gives are not always drawn. Some of the results follow. Repeats are few or missing, and single values can be far off.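 The strains were three CDC resistance-bank clinical C. auris isolates from clades III, IV and I, cultured in RPMI-1640 at 35°C. Growth was background-corrected OD600 versus vehicle-only wells on the same plate. A hit needed >50% inhibition in two or more strains plus a plate-corrected B-score exceeding 0.1.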

Key:
Test in all cases: growth relative to vehicle control (OD600 ratio) (fraction); higher = less inhibition
Details in all cases: 24 h
[1] = tested on: C. auris AR-384
[2] = tested on: C. auris AR-386
[3] = tested on: C. auris AR-387

| SMILES | growth ([1]; 1 µM) | growth ([1]; 10 µM) | growth ([2]; 1 µM) | growth ([2]; 10 µM) | growth ([3]; 1 µM) | growth ([3]; 10 µM) |
| --- | --- | --- | --- | --- | --- | --- |
| CN1C(C(=O)Nc2ccccn2)=C(O)c2ccccc2S1(=O)=O [Piroxicam] | 1.32 | 0.92 | 1.05 | 0.73 | 0.66 | 0.75 |
| CNCC[C@H](Oc1cccc2ccccc12)c1cccs1 [Duloxetine HCl] | 1.37 | 0.95 | 1.08 | 1.18 | 1.1 | 1.35 |
| COc1ccc(NS(=O)(=O)c2ccc(N)cc2)nn1 [Sulfamethoxypyridazine] | 0.82 | 0.85 | 1.09 | 0.82 | 1.06 | 0.86 |
| N=C(N)N [Guanidine HCl] | 0.79 | 0.76 | 1 | 0.99 | 0.94 | 0.96 |
| CCOC(=O)CC(=O)N1CCSC1COc1ccccc1OC (stereo unspecified) [Moguisteine] | 1.09 | 1.28 | 1.34 | 1.29 | 1.36 | 1.18 |
| Cc1cncc(CN2CCC(=C3c4ccc(Cl)cc4CCc4cccnc43)CC2)c1 [Rupatadine Fumarate] | 1.1 | 1.04 | 0.9 | 0.92 | 0.85 | 0.8 |
| Nc1ccc(S(=O)(=O)NC(=O)c2ccccc2)cc1 [Sulfabenzamide] | 0.79 | 0.98 | 0.98 | 0.79 | 0.65 | 0.65 |
| CC(C)C[C@H](NC(=O)[C@@H](Cc1cccc2ccccc12)NC(=O)[C@H](Cc1ccc(O)cc1)NC(=O)[C@H](CO)NC(=O)[C@H](Cc1c[nH]c2ccccc12)NC(=O)[C@H](Cc1cnc[nH]1)NC(=O)[C@@H]1CCC(=O)N1)C(=O)N[C@@H](CCCNC(=N)N)C(=O)N1CCC[C@H]1C(=O)NCC(N)=O [Nafarelin Acetate] | 0.72 | 0.83 | 0.85 | 0.74 | 0.87 | 0.72 |
| COc1ccc(C(=O)CC(=O)c2ccc(C(C)(C)C)cc2)cc1 [Avobenzone] | 1.03 | 1.02 | 1.06 | 0.65 | 1.03 | 1.05 |
| CCN(CC)C(=O)/C(C#N)=C/c1cc(O)c(O)c([N+](=O)[O-])c1 [Entacapone] | 0.8 | 0.8 | 1.26 | 0.64 | 0.63 | 0.87 |
| CC(=O)OCC(=O)[C@@]1(O)CC[C@H]2[C@@H]3CCC4=CC(=O)CC[C@]4(C)[C@H]3C(=O)C[C@@]21C [Cortisone acetate] | 0.82 | 0.94 | 0.9 | 0.63 | 0.73 | 0.74 |
| CN(C)CCCN1c2ccccc2CCc2ccc(Cl)cc21 [Clomipramine HCl] | 0.73 | 0.77 | 0.68 | 0.76 | 1.15 | 0.86 |
| NCCc1ccc(O)c(O)c1 [Dopamine HCl] | 0.94 | 0.99 | 0.76 | 1.03 | 1 | 1.1 |
| N[C@@H](Cc1c[nH]c2ccc(O)cc12)C(=O)O [5-hydroxytryptophan (5-HTP)] | 1.31 | 1.39 | 0.8 | 1.29 | 0.79 | 1.03 |
| S=c1[nH]cnc2nc[nH]c12 [Mercaptopurine (6-MP)] | 0.96 | 1.37 | 1.25 | 1 | 1.19 | 1.27 |
| NCCCC(O)(P(=O)(O)O)P(=O)(O)O [Alendronate sodium trihydrate] | 0.73 | 1.28 | 1.21 | 0.97 | 1.08 | 0.79 |
| Cn1cnc([N+](=O)[O-])c1Sc1ncnc2[nH]cnc12 [Azathioprine] | 0.93 | 1.3 | 1.44 | 0.83 | 1.13 | 1.09 |
| OCCN(CCO)c1nc(N2CCCCC2)c2nc(N(CCO)CCO)nc(N3CCCCC3)c2n1 [Dipyridamole] | 1.07 | 0.89 | 0.95 | 0.88 | 0.73 | 0.68 |
| O=c1oc2ccccc2c(O)c1Cc1c(O)c2ccccc2oc1=O [Dicoumarol] | 0.78 | 0.71 | 0.86 | 1 | 0.77 | 0.67 |
| CC(=O)/N=c1/sc(S(N)(=O)=O)nn1C [Methazolamide] | 0.84 | 0.91 | 0.66 | 0.66 | 0.81 | 0.71 |
| Cc1cnc(Nc2ccc(OCCN3CCCC3)cc2)nc1Nc1cccc(S(=O)(=O)NC(C)(C)C)c1 | 0.73 | 0.78 | 0.82 | 0.84 | 0.7 | 0.91 |
| CC1=C(C(=O)O)N2C(=O)[C@@H](NC(=O)[C@H](N)C3=CCC=CC3)[C@H]2SC1 [Cefradine] | 1.34 | 1.29 | 1.13 | 1.25 | 1.22 | 1.24 |
| COc1ccc2cccc(CCNC(C)=O)c2c1 [Agomelatine] | 0.77 | 0.5 | 0.55 | 0.78 | 0.75 | 0.82 |

| SMILES | growth ([1]; 1 µM) | growth ([1]; 10 µM) | growth ([2]; 1 µM) | growth ([2]; 10 µM) | growth ([3]; 1 µM) | growth ([3]; 10 µM) |
| --- | --- | --- | --- | --- | --- | --- |
| CN1C2CCCC1CC(NC(=O)c1nn(C)c3ccccc13)C2 (stereo unspecified) [Granisetron HCl] | 0.57 | 0.74 | 0.82 | 0.81 | 0.97 | 0.83 |
| CC1(C)O[C@@H]2C[C@H]3[C@@H]4C[C@H](F)C5=CC(=O)C=C[C@]5(C)[C@@]4(F)[C@@H](O)C[C@]3(C)[C@]2(C(=O)CO)O1 [Fluocinolone Acetonide] | 0.96 | 1.22 | 1.06 | 1.29 | 1.18 | 1.18 |
| Cc1ccc(C)c(OCCCC(C)(C)C(=O)O)c1 [Gemfibrozil] | 1.24 | 0.91 | 0.89 | 1.32 | 0.88 | 1.03 |
| Cc1cc(Nc2cc(N3CCN(C)CC3)nc(Sc3ccc(NC(=O)C4CC4)cc3)n2)n[nH]1 [Tozasertib (VX-680, MK-0457)] | 0.83 | 0.88 | 0.91 | 0.75 | 0.9 | 0.91 |
| CO[C@H]1/C=C/O[C@@]2(C)Oc3c(C)c(O)c4c(O)c(c(/C=N/N5CCN(C6CCCC6)CC5)c(O)c4c3C2=O)NC(=O)/C(C)=C\C=C\[C@H](C)[C@H](O)[C@@H](C)[C@@H](O)[C@@H](C)[C@H](OC(C)=O)[C@@H]1C [Rifapentine] | 0.8 | 0.9 | 0.95 | 0.95 | 0.95 | 1.06 |
| NCC[C@H](O)C(=O)N[C@@H]1C[C@H](N)[C@@H](O[C@H]2O[C@H](CN)[C@@H](O)[C@H](O)[C@H]2O)[C@H](O)[C@H]1O[C@H]1O[C@H](CO)[C@@H](O)[C@H](N)[C@H]1O [Amikacin disulfate] | 1.41 | 1.25 | 1.26 | 1.13 | 1.12 | 1.21 |
| CCOC(=O)[C@H](CCc1ccccc1)N[C@@H](C)C(=O)N1C(=O)N(C)C[C@H]1C(=O)O [Imidapril HCl] | 1.21 | 1.27 | 0.97 | 1.35 | 1.05 | 1.1 |
| CC[C@H](C)C(=O)O[C@H]1C[C@@H](C)C=C2C=C[C@H](C)[C@H](CC[C@@H]3C[C@@H](O)CC(=O)O3)[C@H]21 [Lovastatin] | 1.14 | 1.41 | 1.27 | 1.19 | 1.4 | 1.51 |
| CCOC(=O)[C@H](CCc1ccccc1)N[C@@H](C)C(=O)N1Cc2ccccc2C[C@H]1C(=O)O [Quinapril HCl] | 0.86 | 1 | 1.37 | 1.3 | 1.3 | 1.03 |
| C[C@]12CC[C@@H]3c4ccc(OC(=O)c5ccccc5)cc4CC[C@H]3[C@@H]1CC[C@@H]2O [Estradiol Benzoate] | 1.18 | 0.95 | 0.94 | 1.05 | 1.13 | 1.21 |
| COc1ccc2c(c1)c(CC(=O)O)c(C)n2C(=O)c1ccc(Cl)cc1 [Indomethacin] | 1.14 | 1.56 | 1.09 | 0.93 | 0.76 | 0.86 |
| CO[C@H]1C[C@@H]2CC[C@@H](C)[C@@](O)(O2)C(=O)C(=O)N2CCCC[C@H]2C(=O)O[C@H]([C@H](C)C[C@@H]2CC[C@@H](OCCO)[C@H](OC)C2)CC(=O)[C@H](C)/C=C(\C)[C@@H](O)[C@@H](OC)C(=O)[C@H](C)C[C@H](C)/C=C/C=C/C=C/1C [Everolimus (RAD001)] | 0.05 | 0.46 | 0.27 | 0.06 | 0.08 | 0.05 |
| Cc1ccc(Cl)c(Nc2ccccc2C(=O)O)c1Cl [Meclofenamate Sodium] | 1.12 | 1.17 | 0.78 | 1.06 | 0.75 | 0.73 |
| CC(C)(C)NCC(O)c1cc(O)cc(O)c1 (stereo unspecified) [Terbutaline Sulfate] | 0.66 | 0.93 | 0.84 | 1.31 | 0.98 | 0.91 |
| N#C[C@@H]1C[C@@H]2C[C@@H]2N1C(=O)[C@@H](N)C12CC3CC(CC(O)(C3)C1)C2 [Saxagliptin] | 0.62 | 0.75 | 0.73 | 0.84 | 0.98 | 0.9 |
| Cc1c(C(=O)NN2CCCCC2)nn(-c2ccc(Cl)cc2Cl)c1-c1ccc(Cl)cc1 [Rimonabant] | 1.03 | 0.65 | 0.72 | 0.88 | 0.68 | 0.79 |
| CCOc1nc2cccc(C(=O)O)c2n1Cc1ccc(-c2ccccc2-c2noc(=O)[nH]2)cc1 [Azilsartan] | 1.04 | 0.85 | 0.92 | 1.05 | 0.89 | 1.08 |
| Cn1c(=O)c2nc[nH]c2n(C)c1=O [Theophylline] | 1.1 | 0.74 | 0.95 | 1.17 | 1.13 | 0.93 |
| CC(=O)OCC1=C(C(=O)O)N2C(=O)[C@@H](NC(=O)Cc3cccs3)[C@H]2SC1 [Cephalothin] | 1.2 | 1.37 | 1.29 | 1.21 | 1.11 | 1.48 |
| C[C@@H](O)[C@H]1C(=O)N2C(C(=O)OCOC(=O)C(C)(C)C)=C(SC3CN(C4=NCCS4)C3)[C@H](C)[C@H]12 [Tebipenem Pivoxil] | 0.88 | 0.64 | 0.66 | 0.83 | 0.69 | 0.71 |
| CCOC(CN1CCN(CC(C)C(=O)c2ccccc2)CC1)c1ccccc1 (stereo unspecified) [Eprazinone 2HCl] | 0.79 | 1.16 | 0.91 | 1.3 | 0.91 | 1.06 |
| O=NN(CCCl)C(=O)NC1CCCCC1 [Lomustine] | 0.86 | 0.85 | 0.89 | 0.92 | 1.08 | 0.89 |
| CC(CCc1ccccc1)NCC(O)c1ccc(O)c(C(N)=O)c1 (stereo unspecified) [Labetalol HCl] | 0.96 | 0.73 | 0.98 | 0.6 | 0.67 | 0.55 |
